Reference: patent US20160310454A1, “LIVER X RECEPTOR AGONISTS IN THE TREATMENT OF EMPHYSEMA” (priority 2013, published 2016)
For at least one compound, name, drawing or mass did not settle the structure.

Legend:
[1] = test system: murine disease models of atherosclerosis; conditions: mouse, in vivo; cited from earlier work
[2] = test system: mouse macrophages (bone marrow derived, ABCA1 fl/fl WT) treated with 5% CSE; test: Mouse macrophages treated with 5% CSE with or without LXR agonist (RT-PCR, Western blot, zymography); assay type: cell-based; conditions: LXR agonist 10 μM
Protocol: To prepare cigarette (CSE), the smoke from one cigarette (1.1 mg of nicotine, 15 mg of tar) was passed through 25 mls of phosphate buffered saline (PBS) (Mercer et al., 2004). The pH of the extracted solution was adjusted to 7.4 and then filtered (Mercer et al., 2004). CSE was added to the media at concentrations up to 5% (vol/vol) (Mercer et al., 2004).
In these experiments both mouse peritoneal and mouse bone marrow derived macrophages (BMdM) were utilized. Mouse peritoneal macrophages were isolated from peritoneal cavities of 3% thioglycolate injected mice on the 5th day from injection. To compare expression of genes in vitro and in vivo peritoneal macrophages were isolated from mice exposed to room air and cigarette smoke. For in vitro analysis cells were seeded on culture plates for 24 h and then treated with CSE. For in vivo analysis cells were collected from peritoneal cavity and mRNA was directly isolated. […] The obtained cells were then counted (usually 100-150 million cells per mouse) and centrifuged for 5 min at 2600 rpm. […] Approximately after 7-10 days of plating the cells become fully differentiated into macrophages and were ready for subsequent experiments. […]
The lungs of mice (-10 mg) were homogenized in 1 ml of Radioimmunoprecipitation assay (RIPA) buffer, and centrifuged at 14,000 g for 10 min. The protein concentration of each sample was measured using a Bradford reagent. […]

Q: With C[C@H](CCC(=O)N(C)C)[C@H]1CCC2C3CC=C4C[C@@H](O)CC[C@]4(C)C3CC[C@@]21C (stereo partly drawn) [DMHCA, N,N-dimethyl-3β-hydroxy-cholenamide] as the molecule, how does the “cholesterol level in serum and liver” value [1] read?
A: The value was “lowers”.

Q: And the development of atherosclerosis [1]?
A: The development of atherosclerosis was “inhibits”.

Q: And the “MMP9 expression (mRNA) after smoke exposure” value [2]?
A: Its value is “able to block”.
